Test results published in PubChem BioAssay AID504834 (National Center for Advancing Translational Sciences (NCATS), 2011).
Values joined by “and” are separate entries in the source; they are usually repeats but may differ in a detail not shown here. Equal values may be shown once. About 22,000 (6.9%) of roughly 320,000 compounds were called active. The shares of active, inactive and inconclusive entries below differ from those in the screen. The call rests on the fitted dose curve; in most records, active means well fitted inhibition curve with a large enough effect; inconclusive means small, poorly fitted or top-dose-only effect, or another doubt; inactive means no such curve, though single readings can be large or run the other way. A potency beside an inconclusive call is a rough fit, not a confirmed value.

assay: Primary qHTS for delayed death inhibitors of the malarial parasite plastid, 96 hour incubation; conditions: P. falciparum luciferase reporter growth; series mostly up to 28.7 µM; activity change, negative = inhibition: at the top concentration
How it was run: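 96 h incubation, 37 C, 5% CO2, of luciferase-reporter P. falciparum-infected RBCs (2% hematocrit, 0.05% parasitemia final) with test compounds; endpoint luminescence.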
On the % scale 0 is the no-effect control and ±100 the full control effect; potency means the concentration at half of the fitted maximal effect.

Row | Structure (SMILES) | Potency | activity change, negative = inhibition
1 | Cc1c(NC(=O)C2CCCCN2S(=O)(=O)c2ccc(Cl)cc2)c(=O)n(-c2ccccc2)n1C (configuration not stated) | inconclusive: 5.86 µM [inhibitor, partial curve] | –
2 | O=C(COC(=O)C1(c2ccccc2F)CCCC1)N1CCNC1=O | – | inactive: 4.54%
3 | COc1cc(/C=N/NC(=S)NC2CC3CCC2C3)ccc1O (configuration not stated) | inconclusive: 16.5 µM [inhibitor, single point] | –
4 | COc1ccc(NC(=O)c2cccc(S(=O)(=O)N3CCN(C)CC3)c2)c(OC)c1 | inconclusive: 18.5 µM [inhibitor, single point] | –
5 | O=C(NNC(=S)NC(=O)c1ccccc1)c1cccc([N+](=O)[O-])c1 | – | inactive: -27.2%
6 | COc1ccccc1CN1CC(C(=O)NCc2cnn(C)c2)CCC1=O (configuration not stated) | active: 6.57 µM | –
7 | Cc1ccc(OCC(=O)Nc2ccc3c(c2)OCO3)c(C)c1 | inconclusive: 18.5 µM [inhibitor, single point] | –
8 | CCCCCCn1c(N2CCN(c3cccc(Cl)c3)CC2)nc2c1c(=O)[nH]c(=O)n2C | inconclusive: 8.28 µM [inhibitor, partial curve, poor fit] | –
9 | O=C(C(Cc1ccccc1)NS(=O)(=O)c1cccc2nsnc12)N1CCC2(CC1)OCCO2 (configuration not stated) | inconclusive: 16.5 µM [inhibitor, single point] | –
10 | Cn1c(=O)c(=O)n(C)c2cc([N+](=O)[O-])c([N+](=O)[O-])cc21 | inconclusive: 18.5 µM [inhibitor, single point] | –
11 | CCOc1ccc(C(=O)OCCN(C)C)cc1 | inconclusive: 0.329 µM [inhibitor, full curve, poor fit] | –
12 | CC(Oc1ccc(C(=O)c2ccccc2)cc1)C(=O)Nc1ccc(S(N)(=O)=O)cc1 (configuration not stated) | inconclusive: 4.15 µM [inhibitor, full curve, poor fit] | –
13 | CCOc1ccccc1C(=O)N1c2ccccc2Sc2ccccc21 | inconclusive: 2.08 µM [inhibitor, partial curve, poor fit] | –
14 | Cn1c2cc(B(O)O)sc2c2cnn(Cc3c(F)cccc3F)c(=O)c21 | inconclusive: 13.1 µM [inhibitor, single point] | –
15 | COc1ccc(C(=O)Nc2ccccc2N2CCN(C(=O)c3ccccc3)CC2)cc1Br | inconclusive: 14.7 µM [inhibitor, partial curve, poor fit] | –
16 | CC(=O)Nc1ccc(S(=O)(=O)Nc2ccc(S(=O)(=O)Nc3nccs3)cc2)cc1 | – | inactive: -3.39%
17 | COc1ccc(-c2n[nH]c(C)c2-c2ccc(Cl)cc2)c(O)c1 | active: 10.4 µM | –
18 | COc1ccc(C)cc1NC(=O)CO/N=C(\N)CC(=O)NC1CCCCC1 | inconclusive: 18.5 µM [inhibitor, single point] | –
19 | CC(=O)Nc1cccc(NC(=O)c2ccccc2OCc2c(C)noc2C)c1 | inconclusive: 13.1 µM [inhibitor, partial curve, poor fit] | –
20 | Cn1c(O)c(C=Nc2ccc(Br)cc2)c(=O)n(C)c1=O | inconclusive: 18.5 µM [inhibitor, single point] | –
21 | Cn1nc(-c2ccccc2)c(CN2CCN(c3ncccn3)CC2)c1Cl | inconclusive: 16.5 µM [inhibitor, single point] | –
22 | Cc1ccc2nc(-c3ccc(NC(=O)CN4CCN(C(=O)c5ccco5)CC4)cc3)sc2c1 | active: 1.47 µM | –
23 | CC(=O)c1cccc(N(C(=O)Cn2nnc3ccccc32)C(C(=O)NCC2CCCO2)c2ccc(N3CCOCC3)cc2)c1 (configuration not stated) | – | inactive: 16.9%
24 | CCOc1ccc(C2C=C(c3ccc(C)cc3)Nc3nnnn32)cc1 (configuration not stated) | active: 13.1 µM | –

Row | Structure (SMILES) | Potency | activity change, negative = inhibition
25 | CCOC(=O)c1cn2nc(Oc3cccc(F)c3)ccc2n1 | – | inactive: 26.9%
26 | Oc1cccc(Nc2nc(N3CCOCC3)nc(N3CCOCC3)n2)c1 | inconclusive: 18.5 µM [inhibitor, single point] | –
27 | Cc1cc(C)c2sc(NC(=O)c3ccc([N+](=O)[O-])o3)nc2c1 | inconclusive: 1.04 µM [inhibitor, partial curve] | –
28 | COc1ccccc1CNC(=O)C(=O)NCC1OCCN1S(=O)(=O)c1cccs1 (configuration not stated) | inconclusive: 18.5 µM [inhibitor, single point] | –
29 | COc1cc(C(=O)O/N=C(\N)c2ccccn2)cc(OC)c1OC | inconclusive: 8.28 µM [inhibitor, partial curve] | –
30 | O=C(CSc1nncs1)Nc1ccc2c(c1)OCO2 | – | inactive: -28.7%
31 | O=C(Nc1ccc2ccccc2c1)c1ccc(Br)o1 | – | inactive: -28.9%
32 | Cc1ccc2nc(SCC(=O)NCc3ccco3)c(C)cc2c1 | – | inactive: 0%
33 | CCOc1ccc(C(NC(C)=O)c2ccc(OC)c(OC)c2)cc1 (configuration not stated) | active: 1.47 µM | –
34 | CCCN(C(=O)c1ccccc1Cc1ccccc1)C1CCS(=O)(=O)C1 (configuration not stated) | inconclusive: 18.5 µM [inhibitor, single point] | –
35 | COc1ccc(CN2CC(C(=O)NCc3ccccn3)CC2=O)cc1 (configuration not stated) | inconclusive: 10.4 µM [inhibitor, single point] | –
36 | CC1CC(C)CN(C(=O)c2cc3c(s2)CCC3)C1 (configuration not stated) | inconclusive: 14.7 µM [inhibitor, partial curve, poor fit] | –
37 | CCN(CC)CCCN(c1ccccc1)C1Cc2ccccc2C1 | inconclusive: 2.13 µM [inhibitor, full curve, poor fit] | –
38 | CCn1c(O)c(C=Nc2ccccc2)sc1=S | – | inactive: -68.7% [at 1.15 µM]
39 | Cc1ccc(C(=O)OCC(=O)Nc2sc3c(c2C#N)CCC3)cc1 | inconclusive: 18.5 µM [inhibitor, single point] | –
40 | O=[N+]([O-])c1ccc(/C=N/NS(=O)(=O)c2ccc(Cl)cc2)o1 | – | inactive: 0.278%
41 | COCC(C)NC(=O)C1CC(c2cccc(Br)c2)=NO1 (configuration not stated) | – | inactive: 34.7%
42 | O=C(Nc1cccc(C(F)(F)F)c1)C12CC3CC(CC(C3)C1)C2 | – | inactive: -6.67%
43 | O=C(OCCCOC(=O)c1ccc(O)cc1)c1ccc(O)cc1 | inconclusive: 18.5 µM [inhibitor, single point] | –
44 | O=Cc1cn(CCOc2ccccc2)c2ccccc12 | – | inactive: -15.2%
45 | Cn1c(CCNC(=O)OC(C)(C)C)n[nH]c1=S | inconclusive: 18.5 µM [inhibitor, single point] | –
46 | CC(C)C1Cc2c(sc3ncnc(NN)c23)CO1 (configuration not stated) | inconclusive: 11.7 µM [inhibitor, single point] | –
47 | COc1ccc(-n2nc3ccc(NS(C)(=O)=O)cc3n2)cc1Cl | – | inactive: 25.9%
48 | CCOc1ccc(N(C)S(=O)(=O)c2c[nH]c(C(=O)OC)c2)cc1 | inconclusive: 18.5 µM [inhibitor, single point] | –

Row | Structure (SMILES) | Potency | activity change, negative = inhibition
49 | O=C(CN1CCN(c2ccc(O)cc2)CC1)NC1CCCc2ccccc21 (configuration not stated) | inconclusive: 11.7 µM [inhibitor, single point] | –
50 | C#CCOCCOCCOCCNc1nc(N2CCN(C(=O)CCCCCCCCCCNC(=O)[C@H](CCC(=O)O)n3cc(CCCCCN)nn3)CC2)nc(N2CCN(C(=O)CCCCCCCCCCNC(=O)[C@@H]([C@H](C)O)n3cc(C)nn3)CC2)n1 | inconclusive: 1.65 µM [inhibitor, partial curve, poor fit] | –
51 | CS(=O)(=O)N1CCN(c2ccc(NC(=S)NC(=O)c3ccccc3[N+](=O)[O-])cc2)CC1 | – | inactive: 24.1%
52 | CC(C)(C)NC(=O)C(c1ccccc1)N(C(=O)c1csnn1)C1CC1 (configuration not stated) | inconclusive: 13.1 µM [inhibitor, single point] | –
53 | C/C(CC(=O)Nc1ccc(C)c(Cl)c1)=N\NC(=O)Cc1ccccc1 | – | inactive: 4.72%
54 | O=C(O)Cc1sc(NCc2ccco2)nc1-c1ccccc1 | – | inactive: -4.5%
55 | CCc1ccc(-c2nc(CN3CCC(C(=O)NCc4ccccc4OC)CC3)c(C)o2)cc1 | – | inactive: -26.9%
56 | N#Cc1ccc(CSc2nnc(-c3cccnc3)o2)cc1 | – | inactive: 1.58%
57 | COCCN(C(=O)c1ccccc1F)c1nc(-c2ccc(OC)cc2)cs1 | – | inactive: 316%
58 | O=C(Nc1nc(-c2ccc3ccccc3c2)cs1)C1CCN(S(=O)(=O)c2cccs2)CC1 | inconclusive: 8.28 µM [inhibitor, partial curve] | –
59 | N#CCC(=N)N1CCN(c2ccccc2Cl)CC1 | – | inactive: 29.4%
60 | COc1ccc(CCN(Cc2cc3ccc(C)cc3[nH]c2=O)C(C)=O)cc1OC | – | inactive: -2.16%
61 | O=c1cc(CN2CCOCC2)c2ccc(O)c(O)c2o1 | – | inactive: -5.82%
62 | CCN(CC)S(=O)(=O)c1cc(NC(=O)CSc2n[nH]c(N)n2)ccc1C | inconclusive: 10.4 µM [inhibitor, single point] | –
63 | COc1ccccc1-c1coc2cc(OC(=O)N3CCOCC3)ccc2c1=O | – | inactive: 19.6%
64 | CC1=C(C(=O)N2CCOCC2)C(c2ccc(C)cc2)NC(=S)N1 (configuration not stated) | – | inactive: -22.6%
65 | Cc1cc(C(=O)C(=O)N(C)C)c(C)n1-c1ccc(Cl)cc1 | inconclusive: 18.5 µM [inhibitor, single point] | –
66 | COC(=O)NCCc1cc(OC)c(OC)cc1S(=O)(=O)N1CC(=O)Nc2ccccc21 | – | inactive: 10.7%
67 | C=C(C)CNC(=O)CCc1nnc(C2(c3ccc(Cl)cc3)CCC2)o1 | inconclusive: 13.1 µM [inhibitor, partial curve, poor fit] | –
68 | C/C=C/c1ccc(O)c(OC)c1 | inconclusive: 4.78 µM [inhibitor, partial curve, poor fit] and inconclusive: 5.86 µM [inhibitor, single point] | –
69 | COc1ccc(-c2csc(NC(=O)c3c(C)noc3C)n2)cc1 | – | inactive: 31.7%
70 | CCOC(=O)c1c(C)[nH]c(C)c1S(=O)(=O)NCc1ccc(OCC)cc1 | inconclusive: 11.7 µM [inhibitor, single point] | –
71 | COc1ccc(NC(=O)N2CCCC(c3nc(-c4ccc(C(C)C)cc4)no3)C2)cc1 (configuration not stated) | active: 8.28 µM | –
72 | CCCN(C(=O)CCNC(=O)Cn1cnc2ccccc2c1=O)c1cccc(C)c1 | inconclusive: 18.5 µM [inhibitor, single point] | –

Random excerpt: five records from the list.
Row | Structure (SMILES) | Potency | activity change, negative = inhibition
59 | N#CCC(=N)N1CCN(c2ccccc2Cl)CC1 | – | inactive: 29.4%
55 | CCc1ccc(-c2nc(CN3CCC(C(=O)NCc4ccccc4OC)CC3)c(C)o2)cc1 | – | inactive: -26.9%
64 | CC1=C(C(=O)N2CCOCC2)C(c2ccc(C)cc2)NC(=S)N1 (configuration not stated) | – | inactive: -22.6%
72 | CCCN(C(=O)CCNC(=O)Cn1cnc2ccccc2c1=O)c1cccc(C)c1 | inconclusive: 18.5 µM [inhibitor, single point] | –
53 | C/C(CC(=O)Nc1ccc(C)c(Cl)c1)=N\NC(=O)Cc1ccccc1 | – | inactive: 4.72%
